Assay [1] concerns the target zebrafish Smoothened ectodomain (glycosylated, expressed in mammalian cells) (zebrafish) (UniProt Q5RH73). Nature of the assay: SEC-MALS; analytical Superdex S200 10/30, 150 mM NaCl, 10 mM HEPES pH 7.5, flow rate 0.5 ml/min; low concentration (5 µM); protein concentration at the elution peak 8.123×10^-5 g/ml; both purified. (Size exclusion chromatography separates by hydrodynamic size, large species first.)

Assay [2] deals with zebrafish Smoothened ectodomain (bacterial expression, used for crystallization) (zebrafish) (UniProt Q5RH73). The assay can be described thus: crystal structure; zSmo ectodomain at 7 mg/ml, sitting drop, 100 mM HEPES pH 7.0, PEG 6000 20%, 10 mM ZnCl2, 20.5°C; two molecules in the asymmetric unit; both purified.

Results are given in words; binding and its absence hold for the method and conditions named.

B1: zebrafish Smoothened ectodomain (glycosylated, expressed in mammalian cells) (domain or fragment, UniProt Q5RH73 29-195)
chain: VILHPNETIFNDFCKKSTTCEVLKYNTCLGSPLPYTHTSLILAEDSETQEEAFEKLAMWSGLRNAPRCWAVIQPLLCAVYMPKCENGKVELPSQHLCQATRNPCSIVERERGWPNFLKCENKEQFPKGCQNEVQKLKFNTSGQCEAPLVKTDIQASWYKDVEGCGIQ
modifications: glycosylated (two predicted N-linked glycosylation sites)
Consider B1, for which the binding entry in assay [1] was “no binding (tested: 5 µM)”.

B2: zebrafish Smoothened ectodomain (bacterial expression, used for crystallization) (domain or fragment, UniProt Q5RH73 29-212)
chain: VILHPNETIFNDFCKKSTTCEVLKYNTCLGSPLPYTHTSLILAEDSETQEEAFEKLAMWSGLRNAPRCWAVIQPLLCAVYMPKCENGKVELPSQHLCQATRNPCSIVERERGWPNFLKCENKEQFPKGCQNEVQKLKFNTSGQCEAPLVKTDIQASWYKDVEGCGIQCDNPLFTEDEHSDMHSY
Consider B2, for which the binding result in assay [2] is recorded as “no binding”.
